# Measured values as given in PubChem BioAssay AID504834 (National Center for Advancing Translational Sciences (NCATS), 2011).
# The campaign covered roughly 320,000 compounds. About 22,000 (6.9%) were called active. Inconclusive results, whose numbers are uncertain, are shown with a selection of clear calls. The call rests on the fitted dose curve; in most records, active means well fitted inhibition curve with a large enough effect; inconclusive means small, poorly fitted or top-dose-only effect, or another doubt; inactive means no such curve, though single readings can be large or run the other way. Potencies beside an inconclusive call are fits to weak or partial responses and may not hold up.
# Assay: Primary qHTS for delayed death inhibitors of the malarial parasite plastid, 96 hour incubation
# Details: P. falciparum luciferase reporter growth; series mostly up to 28.7 µM
# Outline: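 Parasite growth measured via integrated firefly luciferase reporter in P. falciparum. Infected erythrocytes at 2% hematocrit, 0.05% parasitemia final were treated 96 hours at 37 C under 5% CO2, and luminescence was read.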
# Potency means the concentration at half of the fitted maximal effect.
row,SMILES,Potency
1,O=C(Nc1ccccc1)C1=C[C@@H](c2ccc(C(F)(F)F)cc2)C[C@@H](OCc2ccc(CO)cc2)O1,"inconclusive: 6.57 µM [inhibitor, partial curve]"
2,O=C(NCc1ccco1)/C(=C/c1ccc(F)cc1)NC(=O)c1ccccc1,inactive
3,O=C(c1cc2ccccc2o1)N1CCN(c2ccccc2Cl)CC1,active: 7.38 µM
4,COc1ccc(Nc2nc(-c3sc(C)nc3C)cs2)c(OC)c1,"inconclusive: 5.22 µM [inhibitor, partial curve, poor fit]"
5,CCc1cc(=O)oc2c3c(cc(OCC(=O)NCCCC(=O)O)c12)OC(C)(C)CC3,"inconclusive: 8.28 µM [inhibitor, partial curve, poor fit]"
6,Cc1nnc(SCc2cc([N+](=O)[O-])cc3c2OCOC3)n(N)c1=O,"inconclusive: 7.38 µM [inhibitor, partial curve, poor fit]"
7,O=C(CSc1ncccn1)NC1CCS(=O)(=O)C1 (stereo unspecified),inactive
8,Cc1ccsc1CN(C)C(=O)C(NC(=O)c1cccc(S(=O)(=O)N2CCOCC2)c1)C(C)C (stereo unspecified),"inconclusive: 10.4 µM [inhibitor, single point]"
9,CCOC(=O)CSc1cc(CS(=O)(=O)c2ccccc2)nc(-c2ccccc2)n1,"inconclusive: 18.5 µM [inhibitor, single point]"
10,N#Cc1ccccc1CSCCNC(=O)Cc1c(F)cccc1Cl,inactive
11,CCCN(CCC)C1=N/C(=C\c2ccco2)C(=O)N1c1ccccc1,inactive
12,O=C(CCN1CCN(C(=O)c2ccccc2)CC1)c1ccc(Br)cc1,"inconclusive: 10.4 µM [inhibitor, single point]"
13,Cc1cc(C)c2c(N)c(C(=O)Nc3ccccc3F)sc2n1,inactive
14,CCc1ccccc1N(C(=O)c1ccco1)C(C(=O)NC1CCCC1)c1cccnc1 (stereo unspecified),inactive
15,Cc1ccccc1CC(=O)NCc1cccnc1,inactive
16,COCCCN(C(=O)C(C)Oc1ccc(Br)cc1)c1c(N)n(Cc2ccccc2)c(=O)[nH]c1=O (stereo unspecified),"inconclusive: 9.28 µM [inhibitor, partial curve, poor fit]"
17,CC1CN(C(=O)C(c2ccccc2)c2ccccc2)CC(C)O1 (stereo unspecified),"inconclusive: 11.7 µM [inhibitor, single point]"
18,COc1ccc(NC(=O)CN(C)C(=O)c2ccc(C)s2)cc1,inactive
19,COc1ccccc1C(=O)NNC1=C(C(=O)C(F)(F)F)CCC1,inactive
20,COC(=O)c1c(C)[nH]c(C(=O)OCC(=O)N(CC(C)C)c2c(N)n(Cc3ccccc3)c(=O)[nH]c2=O)c1C,"inconclusive: 11.7 µM [inhibitor, single point]"
21,CC(C)Sc1nnc([C@@H](N)Cc2ccccc2)o1,inactive
22,Cc1ncoc1C(=O)Nc1ccccc1-c1ccccc1,"inconclusive: 18.5 µM [inhibitor, single point]"
23,COc1cccc(/C=C2\CCCCC2=O)c1,inactive

# Individual results from the results shown:
# Potency with CCCN(CCC)C1=N/C(=C\c2ccco2)C(=O)N1c1ccccc1 is entered as inactive
# Potency with Cc1ncoc1C(=O)Nc1ccccc1-c1ccccc1 is entered as inconclusive: 18.5 µM [inhibitor, single point]

# Remaining list, next part.

row,SMILES,Potency
1,CCOc1ccc(-c2c(C#N)c(N)nc3sc(C(=O)c4ccccc4)c(N)c23)cc1,"inconclusive: 2.94 µM [inhibitor, full curve]"
2,CN1CCSc2ccc(C(=O)NCc3cccc(Br)c3)cc21,"inconclusive: 18.5 µM [inhibitor, single point]"
3,O=C(NCc1ccc2c(c1)OCO2)c1ccc(CS(=O)Cc2ccc(Cl)cc2)o1 (stereo unspecified),"inconclusive: 9.28 µM [inhibitor, partial curve, poor fit]"
4,CSCC[C@H](NS(=O)(=O)c1ccc(C)cc1)C(=O)N1CCC(C(=O)N[C@@H](Cc2ccccc2)C(=O)O)CC1,"inconclusive: 18.5 µM [inhibitor, single point]"
5,COC(=O)c1ccc(COc2ccc(-c3nnn(CC(=O)NC(C)(C)C)n3)cc2)cc1,active: 7.38 µM
6,COc1ccc(NS(=O)(=O)c2cccc(C(=O)Nc3ccccc3C(=O)O)c2)cc1,inactive
7,CNC(=O)C1CCN(S(=O)(=O)c2c(C)noc2/C=C/c2ccc(C)cc2)CC1,"inconclusive: 2.08 µM [inhibitor, full curve]"
8,CC(NC(=O)NC(=O)c1cccc(Cl)c1)c1ccccc1 (stereo unspecified),inactive
9,Cc1ccc(C(=O)NCC(=O)OCn2nnc3ccccc3c2=O)cc1,"inconclusive: 18.5 µM [inhibitor, single point]"
10,COc1cc(C2C(N3C(=O)c4ccccc4C3=O)C(=O)N2c2cccc(C)c2)cc(OC)c1OC (stereo unspecified),"inconclusive: 11.7 µM [inhibitor, partial curve, poor fit]"
11,Oc1cccc(-n2nnnc2SCc2ccccc2F)c1,"inconclusive: 10.4 µM [inhibitor, single point]"
12,COC(=O)C1C(=O)C(C(=O)c2ccc([N+](=O)[O-])cc2)C(=O)CC1(C)C (stereo unspecified),"inconclusive: 18.5 µM [inhibitor, single point]"
13,O=C1CCCN1CCCNC(=S)Nc1ccc(F)c(Cl)c1,inactive
14,O=C(COC(=O)C1=COCCO1)Nc1ncc(C(F)(F)F)cc1Cl,"inconclusive: 20.8 µM [inhibitor, partial curve, poor fit]"
15,Cc1ccccc1NC(=S)Nc1ccc(Br)cc1,"inconclusive: 18.5 µM [inhibitor, single point]"
16,CCOC(=O)c1c(C)[nH]c(C(=O)Nc2ccc3c(c2)OCO3)c1C,"inconclusive: 13.1 µM [inhibitor, partial curve, poor fit]"
17,Cc1cc(C(=O)N/N=C/c2ccc3ccccc3c2)n[nH]1,"inconclusive: 11.7 µM [inhibitor, single point]"
18,COc1cc(C2C(C(=O)c3ccc(C)o3)=C(O)C(=O)N2CCc2ccccc2)ccc1O (stereo unspecified),"inconclusive: 16.5 µM [inhibitor, single point]"
19,O=C(CN1CCN(S(=O)(=O)c2ccccc2)CC1)Nc1ccccc1Cl,inactive
20,CCCC(CCC)C(=O)Nc1c[nH]c(=O)[nH]c1=O,inactive
21,CCCCNC(=S)N(C)N=C1CCC(c2ccccc2)CC1 (stereo unspecified),"inconclusive: 6.57 µM [inhibitor, partial curve]"
22,OCCN(Cc1ccccc1)C(=S)Nc1ccc(Cl)cc1Cl,inactive
23,O=C(C1=C[C@H](c2csc3ccccc23)C[C@H](OCc2ccc(CO)cc2)O1)N1CCN(Cc2ccccc2)CC1,active: 9.28 µM
